{"source": "PubChem BioAssay AID504834", "about": "(National Center for Advancing Translational Sciences (NCATS), 2011)", "note": "About 22,000 (6.9%) of roughly 320,000 compounds were called active. Inconclusive results, whose numbers are uncertain, are shown with a selection of clear calls. Calls follow the shape of the dose curve; as a rule, active = well fitted inhibition curve with a large enough effect; inconclusive = small, poorly fitted or top-dose-only effect, or another doubt; inactive = no such curve, though single readings can be large or run the other way. A potency beside an inconclusive call is a rough fit, not a confirmed value. Potency is read from the fitted curve at half-maximal effect."}
{"test": "Primary qHTS for delayed death inhibitors of the malarial parasite plastid, 96 hour incubation", "conditions": "P. falciparum luciferase reporter growth; series mostly up to 28.7 µM", "summary_of_the_method": "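Delayed-death screen, second-generation endpoint: infected erythrocytes, 2% hematocrit, 0.05% parasitemia final; 96 hours at 37 C, 5% CO2; luciferase detection reagent; luminescence decrease equals reduced growth.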"}
{"smiles": "CC1CCN(S(=O)(=O)c2ccc(NC(=O)[C@@H]3CCCN3C(=O)c3cccs3)cc2)CC1", "Potency": "inconclusive: 18.5 µM [inhibitor, single point]"}
{"smiles": "O=C(O)C1C2CCC(O2)C1C(=O)NCc1ccncc1", "note": "(configuration not stated)", "Potency": "inconclusive: 18.5 µM [inhibitor, single point]"}
{"smiles": "CCn1c(C(=O)N2CCCC(C(=O)NCCCc3ccccc3)C2)cc2sccc21", "note": "(configuration not stated)", "Potency": "inconclusive: 13.1 µM [inhibitor, partial curve, poor fit]"}
{"smiles": "CC(C)NC(=O)CSc1ccccc1C(=O)N1CCN(S(=O)(=O)/C=C/c2ccccc2)CC1", "Potency": "inconclusive: 9.28 µM [inhibitor, partial curve, poor fit]"}
{"smiles": "O=C(N/N=C/c1ccc(O)cc1)c1[nH]c2ccc(Br)cc2c1-c1ccccc1", "Potency": "inconclusive: 18.5 µM [inhibitor, single point]"}
{"smiles": "Cc1ccc2c(COC(=O)CNC(=O)c3ccccc3)cc(=O)oc2c1", "Potency": "inactive"}
{"smiles": "COC(=O)/C=C/CSC1=N/C(=C/c2ccc(-n3cncn3)cc2)C(=O)N1", "Potency": "inactive"}
{"smiles": "CC(C)c1csc(CN2CCC(N3CCC(C(=O)NCC4CCCO4)CC3)CC2)n1", "note": "(configuration not stated)", "Potency": "inconclusive: 9.28 µM [inhibitor, partial curve, poor fit]"}
{"smiles": "CC[N+](CC)(CCNC(=O)C(=O)NCC[N+](CC)(CC)Cc1ccccc1Cl)Cc1ccccc1Cl", "Potency": "active: 6.01 µM"}
{"smiles": "O=C(CCCSc1nc2ccccc2[nH]1)NCc1ccccc1F", "Potency": "inactive"}
{"smiles": "Cc1cccc2c1N(CCCOc1ccc(C(C)(C)C)cc1)C(=O)C2=O", "Potency": "active: 9.28 µM"}
{"smiles": "Cc1ccc(N2CC(C(=O)Nc3ccc(C)c(S(=O)(=O)N(C)C)c3)CC2=O)cc1", "note": "(configuration not stated)", "Potency": "inconclusive: 2.08 µM [inhibitor, single point]"}
{"smiles": "Cn1c(SCC(=O)Nc2ccc(NC(=O)c3cccc(F)c3)cc2)nnc1-c1ccncc1", "Potency": "inactive"}
{"smiles": "COc1ccc(CNC(=O)c2cccc(-c3ccc(C)c4ccccc34)n2)cc1", "Potency": "inconclusive: 18.5 µM [inhibitor, single point]"}
{"smiles": "O=C(O)CN1CCN(c2ncc(C(F)(F)F)cc2Cl)CC1", "Potency": "inconclusive: 11.7 µM [inhibitor, single point]"}
{"smiles": "COc1ccc(/C=N/NC(=O)c2ccc(CSc3nc(C)cc(C)n3)cc2)c(OC)c1OC", "Potency": "inconclusive: 2.62 µM [inhibitor, partial curve, poor fit]"}
{"smiles": "Cc1ccc(S(=O)(=O)N/N=C\\c2ccc3c(c2)OCO3)cc1", "Potency": "inactive"}
{"smiles": "Cc1cc(OCC(=O)NNC(=O)c2ccncc2)cc(C)c1Cl", "Potency": "active: 10.4 µM"}
{"smiles": "NC(=O)C1CCN(C(c2ccccc2Cl)c2nnnn2Cc2ccc3c(c2)OCO3)CC1", "note": "(configuration not stated)", "Potency": "inactive"}
{"smiles": "CCOc1ccc(N=Nc2ccc(N)cc2N)cc1", "Potency": "inconclusive: 19 µM [inhibitor, single point]"}
{"smiles": "O=C1c2ccccc2C(=Nc2ccccc2)C1c1cccc(Br)c1", "note": "(configuration not stated)", "Potency": "active: 4.15 µM"}
{"smiles": "O=C(Oc1ccnc2cc(Cl)ccc12)N1CCCCCC1", "Potency": "inconclusive: 18.5 µM [inhibitor, partial curve, poor fit]"}
{"smiles": "CCCn1c(SCC(=O)N2CCCCC2)nnc1C(C)C", "Potency": "inactive"}
{"smiles": "O=C(c1cc(COc2ccc(F)cc2F)on1)N1CCOCC1", "Potency": "inactive"}
{"smiles": "O=C1CC(C(=O)Nc2cccc3ccccc23)C2(CCCC2)O1", "note": "(configuration not stated)", "Potency": "active: 1.47 µM"}
{"smiles": "O=S(=O)(c1ccc(SCCOc2cccc(Br)c2)nc1)N1CCCC1", "Potency": "inconclusive: 18.5 µM [inhibitor, single point]"}
{"smiles": "CCN(CC)C(=O)COc1ccc(/C(C)=N/NC(=O)c2ccccc2Br)cc1", "Potency": "inconclusive: 18.5 µM [inhibitor, single point]"}
{"smiles": "Nc1nc(CSc2nc3ccccc3[nH]2)cs1", "Potency": "inactive"}
{"smiles": "O=C(/C=C/c1ccccc1Cl)N1CCOCC1", "Potency": "inconclusive: 18.5 µM [inhibitor, single point]"}
{"smiles": "O=C1C=C(c2ccc(F)nc2)C[C@@H](c2ccc3c(c2)OCO3)C1", "Potency": "inconclusive: 3.29 µM [inhibitor, single point]"}
{"smiles": "CCCSc1nnc(NC(=O)Nc2ccccc2)s1", "Potency": "inactive"}
{"smiles": "CCOC(=O)c1c(NC(=O)C2=COCCO2)sc2c1CCN(C(=O)OC)C2", "Potency": "inconclusive: 1.31 µM [inhibitor, partial curve, poor fit]"}
{"smiles": "O=C(CN(Cc1cccs1)C(=O)CNC(=O)c1ccco1)NC1CCCCC1", "Potency": "inconclusive: 11.7 µM [inhibitor, partial curve, poor fit]"}
{"smiles": "OCCC1CN(Cc2ccn[nH]2)CCN1Cc1ccc(F)c(F)c1", "note": "(configuration not stated)", "Potency": "inconclusive: 18.5 µM [inhibitor, single point]"}
{"smiles": "COc1ccc(N2CCN(CC(O)COc3cc(C)ccc3C)CC2)cc1", "note": "(configuration not stated)", "Potency": "inactive"}
{"smiles": "CCC1=NNC(=O)C(CC(=O)Nc2ccccc2)c2cc(OC)c(OC)cc21", "note": "(configuration not stated)", "Potency": "inconclusive: 18.5 µM [inhibitor, single point]"}
{"smiles": "OC1(c2ccc(Cl)cc2)CN(c2ccccc2)C2=[N+]1CCS2", "note": "(configuration not stated)", "Potency": "inconclusive: 10.4 µM [inhibitor, partial curve, poor fit]"}
{"smiles": "CN1C(=S)SC(/[N+]([O-])=C/c2cccnc2)C1(C)C", "note": "(configuration not stated)", "Potency": "active: 3.7 µM"}
{"smiles": "CCCCN1C(=O)C(O)(CC(=O)c2ccccc2OC)c2ccccc21", "note": "(configuration not stated)", "Potency": "inactive"}
{"smiles": "Cc1cc(OCC(=O)NCCCN(C)C)cc(C)c1Br", "Potency": "inconclusive: 18.5 µM [inhibitor, single point]"}
{"smiles": "CCOc1cccc(-c2nn(-c3ccccc3)cc2/C=C(/C#N)C(=O)NCCCn2ccnc2)c1", "Potency": "inconclusive: 4.65 µM [inhibitor, partial curve, poor fit]"}
{"smiles": "COC(=O)c1ccc(Cn2nnc3c(=O)[nH]c(C4CCCN(S(=O)(=O)c5ccccc5)C4)nc32)cc1", "note": "(configuration not stated)", "Potency": "inactive"}
{"smiles": "Clc1ccc(Nc2ncnc3c2cnn3-c2ccccc2)cc1", "Potency": "inconclusive: 16.5 µM [inhibitor, single point]"}
{"smiles": "Cc1ccccc1N(CC(=O)N1CCCCCC1)S(C)(=O)=O", "Potency": "inconclusive: 18.5 µM [inhibitor, single point]"}
{"smiles": "CCOc1ccccc1N(CC(=O)Nc1ccccc1C(=O)N1CCOCC1)S(C)(=O)=O", "Potency": "active: 10.4 µM"}
{"smiles": "Cc1ccc2cc(CN(CC(C)C)S(=O)(=O)c3ccccc3)c(=O)[nH]c2c1", "Potency": "inconclusive: 16.5 µM [inhibitor, single point]"}
{"smiles": "COc1ccc(N2C(=O)N[C@@H](Cc3ccccc3)C2=O)cc1OC", "Potency": "inactive"}
{"smiles": "Oc1cc(Cc2ccccc2)cnc1CN1CCCCC1", "Potency": "inactive"}
{"smiles": "Cc1ccc(C(=O)CN(C(=O)c2ccc(Cl)cc2)N2C(=O)CCC2=O)cc1", "Potency": "inactive"}
{"smiles": "COC(=O)c1cc(C#N)c(N(C)Cc2ccccc2)nc1C", "Potency": "inconclusive: 8.28 µM [inhibitor, partial curve, poor fit]"}
{"smiles": "COc1ccc(-c2cc(C(=O)Nc3cccc(S(=O)(=O)NCc4ccco4)c3)c3ccccc3n2)cc1OC", "Potency": "inconclusive: 5.86 µM [inhibitor, single point]"}
{"smiles": "NS(=O)(=O)c1cccc(NC(=O)c2cccnc2Oc2ccccc2)c1", "Potency": "inconclusive: 18.5 µM [inhibitor, single point]"}
{"smiles": "Cc1ccc(OCc2nnc(SC(C)C(=O)O)n2-c2ccccc2)cc1", "note": "(configuration not stated)", "Potency": "inconclusive: 10.4 µM [inhibitor, single point]"}
{"smiles": "Cc1cc(Br)cc(C)c1OCC(=O)NNC(=O)c1cccs1", "Potency": "active: 11.7 µM"}
{"smiles": "CS(=O)(=O)N1CCC(C(=O)Nc2ccc(Cl)cc2)CC1", "Potency": "inactive"}
{"smiles": "COc1cccc(CNC(=O)CCC2CCCN(C(=O)c3ccccc3N(C)C)C2)c1", "note": "(configuration not stated)", "Potency": "inconclusive: 18.5 µM [inhibitor, single point]"}
{"smiles": "CCS(=O)(=O)c1nc(S(=O)(=O)c2ccc(Cl)cc2)c(NCc2ccco2)s1", "Potency": "inconclusive: 3.7 µM [inhibitor, partial curve, poor fit]"}
{"smiles": "Cc1ccc(-n2c(C)nc3oc4ccccc4c(=O)c3c2=O)cc1", "Potency": "inactive"}
{"smiles": "O=C(CN(C(=O)c1csnn1)c1ccc(Cl)cc1)NCc1ccc2c(c1)OCO2", "Potency": "inactive"}
{"smiles": "O=C1/C(=C/c2cccc(F)c2)CSc2sccc21", "Potency": "inconclusive: 1.17 µM [inhibitor, partial curve]"}
{"smiles": "COc1ccc(Nc2nc(-c3ccccc3)nc3ccccc23)cc1", "Potency": "inconclusive: 0.415 µM [inhibitor, full curve, poor fit]"}
{"smiles": "CCN(CC)c1ccc(/C=C(/C#N)c2nc3ccccc3[nH]2)c(OC(C)C)c1", "Potency": "inconclusive: 0.928 µM [inhibitor, full curve]"}
{"smiles": "Cc1nc2ccccc2c(=O)n1/N=C/c1c(O)ccc2ccccc12", "Potency": "inconclusive: 11.7 µM [inhibitor, single point]"}
{"smiles": "Cc1noc(C)c1Cn1nc(C(=O)O)c2ccccc2c1=O", "Potency": "inconclusive: 18.5 µM [inhibitor, single point]"}
{"smiles": "O=C(NC1CCS(=O)(=O)C1)N1CCCCC1", "note": "(configuration not stated)", "Potency": "active: 4.15 µM"}
{"smiles": "COc1ccc(CN2C(=O)CN(C3CCCCCC3)C(=O)C2c2ccc(OC)c(OC)c2)cc1", "note": "(configuration not stated)", "Potency": "inconclusive: 0.0657 µM [inhibitor, full curve, poor fit]"}
{"smiles": "CCCNC(=O)C/C(C)=N/NC(=O)COc1ccc(C)cc1Br", "Potency": "inactive"}
{"smiles": "CCN1C(=S)SC(=O)C1=C1C=C(C)N(CCO)C(C)=C1", "Potency": "inactive"}
{"smiles": "CCn1c(=O)c2c(nc(SCC(=O)Nc3ccccc3)n2C)n(C)c1=O", "Potency": "inactive"}
{"smiles": "CCCCN1CN(S(=O)(=O)c2ccc(OC)cc2)c2nc3ccccc3nc21", "Potency": "inconclusive: 4.15 µM [inhibitor, partial curve]"}
{"smiles": "CCCN(C(=O)COC(=O)CSc1ccc([N+](=O)[O-])cc1)C1CCS(=O)(=O)C1", "note": "(configuration not stated)", "Potency": "inactive"}
{"smiles": "CCCc1cc(=O)oc2c(CN3CCOCC3)c(O)ccc12", "Potency": "inconclusive: 9.28 µM [inhibitor, partial curve, poor fit]"}
